From publication PMC5500841 come the findings set out here.

Chains of the proteins cited; added tags and fusions are not shown. Lines headed by an entry give the natural chain unless they say otherwise; changes in a name come on top. A line that says so, or that is headed by a name, gives the form on record, which may keep a tag or linker.
Kit(K642E) of GIST882 cells (human (endogenous in GIST882)) (P10721, form named): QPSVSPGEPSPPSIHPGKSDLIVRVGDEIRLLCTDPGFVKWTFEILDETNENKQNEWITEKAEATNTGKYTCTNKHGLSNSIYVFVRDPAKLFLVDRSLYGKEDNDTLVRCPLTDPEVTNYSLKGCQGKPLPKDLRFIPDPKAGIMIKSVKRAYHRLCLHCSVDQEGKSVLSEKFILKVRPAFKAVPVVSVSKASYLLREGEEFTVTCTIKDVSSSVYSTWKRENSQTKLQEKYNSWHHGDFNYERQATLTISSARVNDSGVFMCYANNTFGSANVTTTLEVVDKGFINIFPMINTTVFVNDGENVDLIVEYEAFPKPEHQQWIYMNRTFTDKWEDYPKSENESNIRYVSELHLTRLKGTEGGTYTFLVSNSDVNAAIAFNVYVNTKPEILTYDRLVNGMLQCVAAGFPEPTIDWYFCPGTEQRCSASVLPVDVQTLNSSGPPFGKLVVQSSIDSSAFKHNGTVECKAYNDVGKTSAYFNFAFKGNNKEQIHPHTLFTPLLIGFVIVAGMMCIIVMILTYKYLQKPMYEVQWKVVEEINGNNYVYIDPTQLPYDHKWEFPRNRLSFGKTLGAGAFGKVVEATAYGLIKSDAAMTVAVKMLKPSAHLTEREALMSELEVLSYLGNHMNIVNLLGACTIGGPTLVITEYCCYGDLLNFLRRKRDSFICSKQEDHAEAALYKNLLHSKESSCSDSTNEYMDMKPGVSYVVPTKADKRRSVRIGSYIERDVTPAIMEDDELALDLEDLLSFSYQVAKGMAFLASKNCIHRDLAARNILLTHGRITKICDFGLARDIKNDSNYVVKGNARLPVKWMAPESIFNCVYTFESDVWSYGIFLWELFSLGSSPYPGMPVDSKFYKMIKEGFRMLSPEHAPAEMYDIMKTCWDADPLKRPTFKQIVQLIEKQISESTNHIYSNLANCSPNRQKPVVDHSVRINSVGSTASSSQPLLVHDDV
UniProt P07947: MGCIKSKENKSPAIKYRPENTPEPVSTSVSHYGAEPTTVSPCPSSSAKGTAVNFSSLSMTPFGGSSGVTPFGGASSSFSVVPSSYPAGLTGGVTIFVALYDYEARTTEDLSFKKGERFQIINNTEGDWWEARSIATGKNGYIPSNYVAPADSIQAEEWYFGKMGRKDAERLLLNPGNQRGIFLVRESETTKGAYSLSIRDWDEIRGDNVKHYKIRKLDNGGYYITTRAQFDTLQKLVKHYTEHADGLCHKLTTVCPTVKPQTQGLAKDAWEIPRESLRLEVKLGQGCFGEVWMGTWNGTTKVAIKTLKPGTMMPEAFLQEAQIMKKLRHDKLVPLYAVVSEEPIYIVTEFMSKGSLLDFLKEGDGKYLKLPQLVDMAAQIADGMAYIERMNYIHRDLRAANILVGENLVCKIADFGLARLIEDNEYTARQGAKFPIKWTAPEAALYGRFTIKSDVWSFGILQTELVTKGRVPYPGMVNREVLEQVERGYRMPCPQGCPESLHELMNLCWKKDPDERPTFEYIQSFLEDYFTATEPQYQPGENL

The experiment concerns the target Kit(K642E) of GIST882 cells (human (endogenous in GIST882)) (UniProt P10721). Nature of the experiment: co-IP; immunoprecipitates from GIST882 cells treated or not with 200 nM imatinib for 4 h, immunoblotted; NP-40 lysates, protein G pre-coated with antibody, 4 °C, 5 h.

These are yes or no findings as the source states them, for the method shown. In cells and extracts the contact can be indirect.

As for “Yes (from UniProt P07947 1-543) (enzyme)”, the binding entry was “no binding”.
